## Results of single-concentration screens

Amino acid sequences for entries named in this document (tags omitted).
UniProt P9WFT3, whole entry: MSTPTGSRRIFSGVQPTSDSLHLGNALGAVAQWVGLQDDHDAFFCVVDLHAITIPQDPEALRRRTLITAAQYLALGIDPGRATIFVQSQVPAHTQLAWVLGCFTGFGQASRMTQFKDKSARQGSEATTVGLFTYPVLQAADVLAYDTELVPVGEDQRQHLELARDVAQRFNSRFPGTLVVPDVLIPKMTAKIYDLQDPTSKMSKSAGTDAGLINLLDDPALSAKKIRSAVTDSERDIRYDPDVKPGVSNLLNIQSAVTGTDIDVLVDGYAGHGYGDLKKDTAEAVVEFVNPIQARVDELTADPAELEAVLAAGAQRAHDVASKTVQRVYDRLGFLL
UniProt P9WNZ1, whole entry: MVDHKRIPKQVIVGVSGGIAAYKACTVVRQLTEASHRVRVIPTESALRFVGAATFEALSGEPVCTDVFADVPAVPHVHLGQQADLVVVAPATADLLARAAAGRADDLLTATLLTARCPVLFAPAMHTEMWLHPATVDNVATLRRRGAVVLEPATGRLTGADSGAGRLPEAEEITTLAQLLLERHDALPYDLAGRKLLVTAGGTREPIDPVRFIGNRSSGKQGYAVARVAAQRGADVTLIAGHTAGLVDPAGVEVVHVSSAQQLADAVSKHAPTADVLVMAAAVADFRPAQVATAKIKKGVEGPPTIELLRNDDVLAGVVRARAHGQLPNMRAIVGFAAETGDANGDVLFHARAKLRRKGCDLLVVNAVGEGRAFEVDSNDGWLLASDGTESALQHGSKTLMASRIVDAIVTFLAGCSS

Data taken from ChEMBL document CHEMBL3988442, “University of Dundee, Small-Polar-MMV Screening Library” (2021).

Leishmania in macrophages: 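Cell assay of Leishmania donovani living inside macrophages; the read-out is not stated. Compounds at 30 µM. The record gives no direction; compounds that gave an IC50 in retests scored well above the rest, so higher reads as stronger inhibition. Size under these conditions: about 69,000 compounds, about 1,000 of them at 50% or above in at least one test.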
MtTrpRS: 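Tryptophan-tRNA ligase, Mycobacterium tuberculosis (UniProt P9WFT3). Enzyme assay of tryptophanyl-tRNA synthetase; the read-out is not stated. Concentration: 10 µM. Direction is not recorded; retested compounds ran higher, which suggests that high means inhibition. Size under these conditions: about 65,000 compounds, about 64 of them at 50% or above in at least one test.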
Toxoplasma: 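Assay of Toxoplasma gondii numbers, read through their beta-galactosidase reporter with a colour substrate. Tested at 10 µM. Higher reads as fewer parasites (inferred from which compounds were picked for retests). About 67,000 compounds were tested under these conditions; 0.38% (about 260) showed 50% or more at least once.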
CoaBC: 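Coenzyme A biosynthesis protein CoaBC, Mycobacterium tuberculosis (UniProt P9WNZ1). Enzyme assay of CoaBC with a phosphate dye (Biomol Green) read at 650 nm. Tested at 30 µM. Direction is inferred from only a few compounds that gave an IC50; most scored high, so higher reads as stronger inhibition. Most strong results did not repeat in a second test. About 67,000 compounds were tested under these conditions; 0.06% (about 40) showed 50% or more at least once.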

Each number is a percent effect as filed.
How 0% and 100% were set is not recorded. Most values in the screen are low, and negative values occur.
This is an unselected part of the compounds tested.
Two or more numbers in one place are separate tests of the same structure; such repeats can differ widely.
A dash means the value is not listed here; it may have been measured.

SMILES: [H][C@@]12CN(C(=O)N(C)C)C[C@]1([H])C(=O)N(C)C21CCN(C(=O)C(C)C)CC1
Leishmania in macrophages: 10.93
Toxoplasma: -20.23

SMILES: CN1CC(=O)N(c2ccsc2)CC12CCN(C(=O)CC1CCCC1)C2 (stereo unspecified)
MtTrpRS: 4.966
CoaBC: -5.071

SMILES: COc1ccc(C)cc1CN(C)CCCNS(C)(=O)=O
Leishmania in macrophages: -4.208
MtTrpRS: -0.4902
Toxoplasma: 3.058
CoaBC: -0.5051

SMILES: c1cc(CNCc2cccc3c2OCCCO3)cc(Cn2cncn2)c1
MtTrpRS: -1.286
CoaBC: -0.3645

SMILES: Cn1cc(CN2CCN(Cc3nccn3C)CC2)cn1
Leishmania in macrophages: -5.508
MtTrpRS: -8.047
Toxoplasma: 1.967
CoaBC: -7.93

SMILES: CC(C)OC[C@H]1CCC[C@]12CN(S(=O)(=O)c1cn(C)cn1)CCO2
Leishmania in macrophages: 9.701
Toxoplasma: -12.51
CoaBC: -1.818

SMILES: COc1ccc(CNCc2cn(C)nc2C)cc1
Leishmania in macrophages: 7.08
Toxoplasma: 3.211
CoaBC: 0.8589

SMILES: CCC(CO)N(Cc1cccnc1)Cc1ccc(-c2ccn[nH]2)s1 (stereo unspecified)
Leishmania in macrophages: 24.64
MtTrpRS: -1.509
Toxoplasma: -0.7493
CoaBC: -9.259

SMILES: O=C(O)C(F)(F)F.O=C(O)C(F)(F)F.[H][C@@]12OCCN(Cc3csc(C)n3)[C@@]1([H])CC[C@@H]2OCc1ccccn1
Leishmania in macrophages: 7.272
Toxoplasma: -19.17

SMILES: COCC(c1cccc(C(F)(F)F)c1)N(C)C(=O)c1cnccn1 (stereo unspecified)
Leishmania in macrophages: 31.05
MtTrpRS: -4.331
Toxoplasma: -8.085
CoaBC: 2.915

SMILES: Cc1cc2c(=O)n3c(nc2s1)CCN(Cc1[nH]cnc1C)CC3.Cl
Leishmania in macrophages: 12.91
Toxoplasma: -5.764

SMILES: CCCc1cc(=O)n(CC(N)=O)c(-n2nc(C)cc2C)n1
Leishmania in macrophages: -0.05957
MtTrpRS: -6.064
Toxoplasma: -2.106
CoaBC: 3.929

SMILES: CC(C)c1nc(CN2CCOC(Cn3cccn3)C2)no1 (stereo unspecified)
Leishmania in macrophages: -40.04
MtTrpRS: 3.504
Toxoplasma: -4.656
CoaBC: -0.6818

SMILES: O=C(NCc1cnc2n1CCN(Cc1nccs1)CC2)C1CCC1
MtTrpRS: -6.987
CoaBC: -17.04

SMILES: CCCN1CCCn2c(nc(CNC(=O)c3nccn3C)cc2=O)C1.O=C(O)C(F)(F)F
Leishmania in macrophages: 19.84
Toxoplasma: -8.88

SMILES: O=C(O)C(F)(F)F.O=C(c1cccc(Cl)c1)N1CCCC2(CCCNC2)C1 (stereo unspecified)
Leishmania in macrophages: 34.5
Toxoplasma: -3.873

SMILES: Cc1cccc2c1nc1n2[C@@H](CNC(=O)C2CCOCC2)COC1
Leishmania in macrophages: 15.8
MtTrpRS: -2.2
Toxoplasma: 11.37
CoaBC: 5.96

SMILES: Cc1ncnc(N2CCCN(c3nc4ccccc4s3)CC2)c1C
Leishmania in macrophages: 23.99
MtTrpRS: -1.342
Toxoplasma: 4.642

SMILES: CN(C)c1ncccc1N(C)C(=O)Cn1cc(-c2ccccc2)nn1
Leishmania in macrophages: -13.09
MtTrpRS: 2.556
Toxoplasma: 2.065
CoaBC: 0.6369

SMILES: CN(C)Cc1ccccc1NC(=O)c1ccc(C#N)cc1
Leishmania in macrophages: 22.63
MtTrpRS: 2.523
Toxoplasma: -2.05

SMILES: CCc1noc(C(C)SCCS(C)(=O)=O)n1 (stereo unspecified)
Leishmania in macrophages: 17.14
MtTrpRS: 2.312
Toxoplasma: 2.51
CoaBC: 4.224

SMILES: Cc1cccc(CN2CCC3(CCCN(C(=O)N4CCCC4)C3)C2=O)n1.O=C(O)C(F)(F)F (stereo unspecified)
Leishmania in macrophages: 6.392 and -8.69
Toxoplasma: -31.49

SMILES: CCOc1ncccc1NC(=O)N1CCC(CN2CCOCC2)CC1
Leishmania in macrophages: 24.08
MtTrpRS: 6.483
Toxoplasma: -14.49
CoaBC: 6.351

SMILES: CNc1cccc(C2CCCN(C(=O)c3ccncc3)C2)n1 (stereo unspecified)
Leishmania in macrophages: 17.66
MtTrpRS: 1.087
Toxoplasma: 10.95
CoaBC: -4.444

For reference, 2 entries once more:

SMILES,Leishmania in macrophages,MtTrpRS,Toxoplasma,CoaBC
O=C(O)C(F)(F)F.O=C(O)C(F)(F)F.[H][C@@]12OCCN(Cc3csc(C)n3)[C@@]1([H])CC[C@@H]2OCc1ccccn1,7.272,-,-19.17,-
CN(C)Cc1ccccc1NC(=O)c1ccc(C#N)cc1,22.63,2.523,-2.05,-